## Percent effect of library compounds

Measurements from “University of Dundee, Small-Polar-MMV Screening Library” (2021), ChEMBL document CHEMBL3988442.

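Growth of Mycobacterium tuberculosis over 4 days (cholesterol / DPPC medium with tyloxapol); the read-out is not stated. Tested at 500 µM. Direction is inferred from retests: higher values go with more growth inhibition. Of about 18,000 compounds tested this way, about 900 (5%) reached 50% or more in at least one test.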

Values are the deposited “Percent Effect”, in %.
The record does not define 0% and 100%; most values in the screen are far below 50% and negative numbers occur (in some assays of this library far below -100).
This is an unselected part of the compounds tested.

{"compound": "CSCC(CCO)NC(=O)NCc1ccccc1Cl", "stereo": "stereo unspecified", "percent effect": 0.1485}
{"compound": "COc1cc(C(C)NCC(C)(C)C(N)=O)ccc1F", "stereo": "stereo unspecified", "percent effect": -7.803}
{"compound": "CN(C)CCC1CN(C(=O)CCc2cccs2)CCO1", "stereo": "stereo unspecified", "percent effect": 9.523}
{"compound": "COc1cc(CCNC(=O)[C@H]2CCC(=O)N2)ccc1C", "percent effect": 14.92}
{"compound": "N#CCCCn1nnc(-c2ccccc2)n1", "percent effect": 71.66}
{"compound": "Cc1nc(C(=O)N2CCSCC2)c(C)s1", "percent effect": -6.176}
{"compound": "COC(=O)Nc1ccc(C(=O)N2CCCC2)cc1", "percent effect": -17.56}
{"compound": "CO[C@H]1CN(C(=O)CCc2cccnc2)CC[C@H]1N", "percent effect": 1.543}
{"compound": "CCCn1ncc(CN2CCC(COC)C2)c1C", "stereo": "stereo unspecified", "percent effect": 11.75}
{"compound": "Cn1nc2n(c1=O)CCN(S(C)(=O)=O)CC2", "percent effect": -11.55}
{"compound": "CCN1CCC(NC(=O)Cc2ccccc2F)CC1", "percent effect": 6.13}
{"compound": "COCC1CCCN1Cc1nc(N)nc(N(C)C)n1", "stereo": "stereo unspecified", "percent effect": -26.16}
{"compound": "CC(=O)Nc1cccc(N2CCN(CC3CC3)CC2)c1", "percent effect": 47.68}
{"compound": "CC(CO)SCc1nnc(C(C)C)o1", "stereo": "stereo unspecified", "percent effect": 1.334}
{"compound": "CC(C)(C)OC(=O)c1cc[nH]n1", "percent effect": 12.79}
{"compound": "CC(C)c1ccn(CC(=O)N2CCOCC2)n1", "percent effect": -9.779}
{"compound": "OCc1ccc(CSc2nnc(O)[nH]2)cc1", "percent effect": -7.3}
{"compound": "O=C(NCCc1nc(C2CC2)no1)c1cnco1", "percent effect": 1.623}
{"compound": "O=c1c2cccc(F)c2ncn1CCOCCO", "percent effect": -9.714}
{"compound": "CCC(C(=O)Nc1ncccc1O)N(C)C", "stereo": "stereo unspecified", "percent effect": -21.24}
{"compound": "CCOC(=O)N1CCC(Nc2ncccc2C#N)CC1", "percent effect": -17.46}
{"compound": "CNC(=O)c1ccc(-n2cccc2)nc1", "percent effect": 1.168}
{"compound": "CCCS(=O)(=O)c1ccccc1C(=O)NC(C)C", "percent effect": 17.63}
{"compound": "CC(C)(C)C(=O)Nc1nccs1", "percent effect": 1.741}
{"compound": "CN(C)CC1CCN(CC(=O)NCC2CCCO2)CC1", "stereo": "stereo unspecified", "percent effect": -0.5573}
{"compound": "O=C(NCCN1CCCS1(=O)=O)C1CCC1", "percent effect": -11.18}
{"compound": "O=C(CSc1nnc[nH]1)NCc1ccc(Br)c(F)c1", "percent effect": 16.51}
{"compound": "CC(C)(C)OC(=O)N1CCC(n2cc(N)cn2)CC1", "percent effect": 67.52}
{"compound": "CC(C)NC(=O)C1CC(=O)N(C(C)C)C1", "stereo": "stereo unspecified", "percent effect": 0.8481}
{"compound": "Cc1ccccc1NC(=O)CCN1CCN(C)CC1", "percent effect": 10.69}
{"compound": "CC(C)CCC(=O)N1CCNC(=O)C1", "percent effect": -15.25}
{"compound": "CN(C)c1ccc(N)nc1", "percent effect": -777.1}
{"compound": "OCc1csc(N2CCC3(CC2)OCCCC3O)n1", "stereo": "stereo unspecified", "percent effect": -45.28}
{"compound": "CC(CCOc1ccccc1)C(=O)NN1CCOCC1", "stereo": "stereo unspecified", "percent effect": -6.483}
{"compound": "CN(CC(=O)Nc1ncccc1O)C1CCS(=O)(=O)C1", "stereo": "stereo unspecified", "percent effect": 5.921}
{"compound": "Cc1ccc(CNCc2cncs2)c(N2CCCC2)n1", "percent effect": -10.55}
{"compound": "NS(=O)(=O)c1ccc(NC(=O)COC(=O)C2CC2)cc1", "percent effect": -1.541}
{"compound": "Cc1nc(-c2ccccn2)sc1C(=O)NC(C)C", "percent effect": 0.05114}
{"compound": "Cc1cnc(C)c(N2CCC3(CC2)CNC(=O)C3)n1", "percent effect": -7.232}
{"compound": "Cc1csc(C(=O)N2CC[C@H](O)C2)c1I", "percent effect": 23.63}
{"compound": "COc1csc(-c2cc(N)[nH]n2)c1", "percent effect": 13.36}
{"compound": "NC1CCC(F)(F)CC1", "percent effect": -2.74}
{"compound": "CCO[C@H]1CN(C)C[C@@H]1NC(=O)c1ccc(O)c(C)c1", "percent effect": 10.08}
{"compound": "Cc1cnc(N2CCC(O)CC2)c(Br)c1", "percent effect": 59.25}
{"compound": "O=C(NC1CCCCC1)C1CCOCC1", "percent effect": 6.23}
{"compound": "c1cncc(CN2CCC(OC3CCOCC3)CC2)c1", "percent effect": -15.83}